SMILES strings stand for the structures. This is one part of the list. Shown are side measurements of this screen, not its main read-out; they come without a call. Most of these compounds were active or inconclusive in the main read-out, so they are no random draw. The note in brackets gives the kind of curve behind each potency; many fits are weak.

This experiment is described as follows: Cell signaling CRE-BLA (Fsk stim). The note with it: CHO CRE-bla reporter (cAMP response element driving beta-lactamase), forskolin EC10, beta-lactamase ratio; measured here: 460 nm blue channel. In outline: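 The 460nm/530nm emission ratio after CCF4 loading defined %Activity, from which AC50 values were obtained. CRE-bla CHO cells received compound dilution series together with an EC10 level of NKH 477 for 3 hours at 37 degrees Celsius.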
Take `CC1=C(C(=O)OCc2ccccc2)C(c2ccccc2OC(F)F)NC(=O)N1` (centres undefined): the AC50 is 0.00316 µM [falling, full curve, poor fit]. In the case of `C=CC(=O)OCC(CO)(COC(=O)C=C)COC(=O)C=C` it was 2 µM [falling, full curve]; in that of `O=c1c2[nH]c3ccccc3c2ncn1Cc1ccccn1`, 10 µM [rising, partial curve]; in that of `CC(C)(C)OC(=O)NCCc1nnc(S(=O)(=O)Cc2ccc(Cl)cc2Cl)o1`, 0.794 µM [falling, full curve]. Consider `COc1ccc(-c2nc3cnc(N4CCNCC4)nc3n(C3CC3)c2=O)cc1`, for which the AC50 was 7.94 µM [rising, partial curve].

On to `Cc1cccc2cc(CN(CC3CCCO3)C(=O)c3cccnc3)c3nnnn3c12` (centres undefined), for which the AC50 was 6.31 µM [rising, partial curve].

On to `CCNc1ncc2nc(-c3cc(F)cc(F)c3)c(=O)n(CCOC)c2n1`, for which the AC50 is 2.51 µM [rising, full curve]. For `CC1(C)CC(=O)C2=C(C1)NC(=O)CC2c1ccccc1F` (centres undefined), the AC50 was 10 µM [falling, partial curve].

On to `O=C(NCc1nc2ccccc2[nH]1)c1cc2ccccc2oc1=O`, for which the AC50 is 3.16 µM [rising, full curve]. On to `N#Cc1nc(N2CCCC2)nc(N2CCCC2)n1`, for which the AC50 is 10 µM [rising, partial curve].

For the molecule `COc1ccc(-c2nc3cnc(OC)nc3n(CCc3ccccc3)c2=O)cc1`, the AC50 is 15.8 µM [rising, partial curve].

Turning to `CCOC(=O)c1oc2ccccc2c1CN1CCOCC1`, the AC50 is 12.6 µM [rising, partial curve]. `CCOC(=O)NCc1ccc(CNC(=O)OCC)cc1`: the AC50 is 1 µM [rising, single point].

As for `CCN1C(=O)c2cccc3c(NC(=O)c4cccc(N5C(=O)CCC5=O)c4)ccc1c23`, the AC50 was 7.94 µM [rising, partial curve]. Under `CCOC(=O)CSc1nc(N)c(C#N)c(-c2ccc(OCC)cc2)c1C#N` stands 3.98 µM [rising, full curve, poor fit]; under `O=C(O)CCC(=O)N1CCc2cc(S(=O)(=O)NC3CCCc4ccccc43)ccc21` (centres undefined), 0.398 µM [falling, full curve]. With `CCOC(=O)c1c(C)[nH]c2cc(Br)c(O)cc12`, the AC50 was 10 µM [rising, partial curve]. `Cc1nc2ncnn2c(Nc2ccc3c(c2)OCO3)c1Cc1ccccc1`: the AC50 is 25.1 µM [rising, single point]. In the case of `O=C(c1ccccc1Cl)N1CCC(c2nc3c(nnn3Cc3ccco3)c(=O)[nH]2)CC1` it was 10 µM [rising, partial curve]; in that of `Cc1ccc2[nH]c(=O)c(CNC(C)(C)C)cc2c1`, 1.58 µM [falling, single point]; in that of `Cn1c(=O)n(C/C=C/c2ccccc2)c(=O)c2c1nc1n2CCCN1c1ccc(F)cc1`, 6.31 µM [rising, partial curve]. In the case of `Cc1nn(-c2ccccc2)c2[nH]c(=O)c(CNCc3ccc4c(c3)OCO4)cc12` it was 25.1 µM [rising, single point]; in that of `CCOc1cc(NS(C)(=O)=O)c(OCC)cc1NC(=O)c1cccs1`, 20 µM [rising, single point]; in that of `COC(=O)c1cn(NC(=O)C2CCCCC2)c(=O)c2ccccc12`, 0.00398 µM [falling, full curve]. In the case of `CCc1nc2ccccc2c(C(=O)OC2CCOC2=O)c1C` (centres undefined) it was 20 µM [rising, single point]; in that of `CCOC(=O)C1=C(C)Nc2nc(SCc3cccnc3)nn2C1c1ccc(OC)cc1` (centres undefined), 15.8 µM [rising, partial curve]; in that of `COc1cccc(Cn2c(=O)c(C)nc3cnc(N4CCNCC4)nc32)c1`, 10 µM [rising, partial curve]. On to `O=C(O)c1cc(-c2ccccc2)c(N2CCOCC2)s1`, for which the AC50 was 0.02 µM [falling, full curve, poor fit]. Under `C/C(=N\O)C(=O)NCc1ccccn1` stands 25.1 µM [falling, partial curve, poor fit]; under `CCSc1nnc(NC(=O)CSc2nc3c(c(=O)n2-c2ccccc2OC)SCC3)s1`, 10 µM [rising, partial curve]; under `COCCn1c(=O)c(-c2ccc(F)cc2)nc2cnc(OCc3ccccc3)nc21`, 25.1 µM [rising, single point].

For `COc1ccc2[nH]cc(CCNc3ccnc(-c4ccccc4Cl)n3)c2c1`, the AC50 is 2 µM [rising, partial curve]. Under `Cc1onc(-c2ccccc2Cl)c1C(=O)Nc1ccc(-c2cn3cccnc3n2)cc1` stands 0.02 µM [falling, full curve, poor fit]; under `CC(C)CNC(=O)c1cc(-c2ccco2)on1`, 0.00398 µM [falling, full curve, poor fit]; under `CCCc1cc(C(=O)Nc2sc(C)c(C)c2C(=O)OCC)no1`, 1.26 µM [rising, full curve]. Regarding `CN(Cc1ccco1)c1nc(-c2cccc(C#N)c2)nc2ccccc12`, the AC50 is 7.94 µM [rising, partial curve]. In the case of `c1ccc(-n2nnnc2NCCc2c[nH]c3ccccc23)cc1` it was 0.0794 µM [falling, full curve, poor fit]. In the case of `COCCn1c(=O)c(-c2cn(C)c3ccccc23)nc2cnc(OCc3ccccc3)nc21` it was 12.6 µM [rising, partial curve]; in that of `CCCC(=O)Nc1nc2ccc(S(N)(=O)=O)cc2s1`, 15.8 µM [rising, single point]. Consider `CCOc1ccccc1N(CC(=O)Nc1ccc(C)cc1)S(C)(=O)=O`, for which the AC50 was 0.000501 µM [rising, full curve]. Under `C/C(N)=C(/C#N)C(=O)COc1ncnc2ccc(Br)cc12` stands 3.16 µM [falling, full curve, poor fit]; under `CCc1nc(Nc2ccc3nccnc3c2)c2oc3ccccc3c2n1`, 0.501 µM [rising, full curve]. In the case of `Cc1cc(C)nc(SCC(=O)Nc2ncc3c(n2)CC(C)(C)CC3=O)n1` it was 3.16 µM [rising, single point]; in that of `O=C(CSc1nnc2scc(-c3ccccc3)n12)NCc1ccc2c(c1)OCO2`, 10 µM [rising, single point].

The values are drawn from PubChem BioAssay AID662 (National Center for Advancing Translational Sciences (NCATS), 2007).
